Assay results: the supplement of paper PMC4604168 (melanoma cell lines)
Some of the results follow. Many values rest on one well or one pass, so single values are uncertain.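 Cells were imaged in 1,536-well plates, and nuclei stained with an antibody against cleaved PARP were counted against all DNA-stained nuclei to give the apoptosis fraction. Screening doses were chosen to leave most cells alive, and resting and induced cleaved-PARP levels differ strongly between cell lines.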

Experiments:
Test in all cases: cleaved PARP positive nuclei fraction relative to DMSO control; melanoma cells; higher = more apoptosis
Conditions in all cases: library dose: low library concentration; 72 h
WM115 = tested on: WM115
WM1716 = tested on: WM1716
WM1745 = tested on: WM1745
WM3526 = tested on: WM3526
WM3619 = tested on: WM3619
WM451Lu = tested on: WM451Lu

SMILES: COCC[n+]1c2c(n(Cc3cnccn3)c1C)C(=O)c1ccccc1C2=O + Cc1cc([N+](=O)[O-])ccc1NS(=O)(=O)c1cc(Cl)ccc1Cl [FH535] (first compound 0.0004 µM, partner dose 1 µM)
- cleaved PARP positive nuclei fraction (WM115): 133%
- cleaved PARP positive nuclei fraction (WM1716): 80.7%
- cleaved PARP positive nuclei fraction (WM1745): 105%
- cleaved PARP positive nuclei fraction (WM3526): 76%
- cleaved PARP positive nuclei fraction (WM3619): 85.1%
- cleaved PARP positive nuclei fraction (WM451Lu): 69.4%

SMILES: OCc1c[nH]c2ccccc12 [Indole-3-carbinol] + CN(C)S(=O)(=O)c1ccc2c(c1)/C(=C/c1cc3c([nH]1)CCCC3)C(=O)N2 [SU6656] (first compound 0.8 µM, partner dose 0.4 µM)
- cleaved PARP positive nuclei fraction (WM115): 174%
- cleaved PARP positive nuclei fraction (WM1716): 58.1%
- cleaved PARP positive nuclei fraction (WM1745): 228%
- cleaved PARP positive nuclei fraction (WM3526): 49.4%
- cleaved PARP positive nuclei fraction (WM3619): 77.3%
- cleaved PARP positive nuclei fraction (WM451Lu): 76%

SMILES: CC(=O)c1c(C)c2cnc(Nc3ccc(N4CCNCC4)cn3)nc2n(C2CCCC2)c1=O [palbociclib] + COc1ccc(Cl)c(Nc2nc3ccccc3nc2NS(=O)(=O)c2cccc(NC(=O)C(C)(C)N)c2)c1 [XL147] (first compound 0.04 µM, partner dose 0.8 µM)
- cleaved PARP positive nuclei fraction (WM115): 96.1%
- cleaved PARP positive nuclei fraction (WM1716): 102%
- cleaved PARP positive nuclei fraction (WM1745): 106%
- cleaved PARP positive nuclei fraction (WM3526): 78.4%
- cleaved PARP positive nuclei fraction (WM3619): 111%
- cleaved PARP positive nuclei fraction (WM451Lu): 101%

SMILES: Cn1c(Nc2ccc(C(F)(F)F)cc2)nc2cc(Oc3ccnc(-c4ncc(C(F)(F)F)[nH]4)c3)ccc21 + Cn1nnc2c(C(N)=O)ncn2c1=O [temozolomide] (first compound 0.08 µM, partner dose 2 µM)
- cleaved PARP positive nuclei fraction (WM115): 1040%
- cleaved PARP positive nuclei fraction (WM1716): 49.1%
- cleaved PARP positive nuclei fraction (WM1745): 133%
- cleaved PARP positive nuclei fraction (WM3526): 60.9%
- cleaved PARP positive nuclei fraction (WM3619): 150%
- cleaved PARP positive nuclei fraction (WM451Lu): 60.1%

SMILES: C[C@]1(c2nc3c(C(N)=O)cccc3[nH]2)CCCN1 [Veliparib] + CC1(C)NC(=O)N(c2ccc([N+](=O)[O-])c(C(F)(F)F)c2)C1=O [nilutamide] (first compound 1.4 µM, partner dose 1 µM)
- cleaved PARP positive nuclei fraction (WM115): 111%
- cleaved PARP positive nuclei fraction (WM1716): 96.8%
- cleaved PARP positive nuclei fraction (WM1745): 103%
- cleaved PARP positive nuclei fraction (WM3526): 84.8%
- cleaved PARP positive nuclei fraction (WM3619): 96.8%
- cleaved PARP positive nuclei fraction (WM451Lu): 182%

SMILES: C=CCn1c(=O)c2cnc(Nc3ccc(N4CCN(C)CC4)cc3)nc2n1-c1cccc(C(C)(C)O)n1 + CC(C)CCN1c2nc(Nc3cc(F)c(O)c(F)c3)ncc2N(C)C(=O)C1C [BID1870] (first compound 0.02 µM, partner dose 0.2 µM)
- cleaved PARP positive nuclei fraction (WM115): 76.2%
- cleaved PARP positive nuclei fraction (WM1716): 168%
- cleaved PARP positive nuclei fraction (WM1745): 122%
- cleaved PARP positive nuclei fraction (WM3526): 85.9%
- cleaved PARP positive nuclei fraction (WM3619): 101%
- cleaved PARP positive nuclei fraction (WM451Lu): 68.8%

SMILES: CO[C@@H]1[C@H](N(C)C(=O)c2ccccc2)C[C@H]2O[C@]1(C)n1c3ccccc3c3c4c(c5c6ccccc6n2c5c31)C(=O)NC4 [Midostaurin] + COc1cc(N2CCC(N3CCN(C)CC3)CC2)ccc1Nc1ncc(Cl)c(Nc2ccccc2S(=O)(=O)C(C)C)n1 [NVP-TAE684] (first compound 0.08 µM, partner dose 0.08 µM)
- cleaved PARP positive nuclei fraction (WM115): 209%
- cleaved PARP positive nuclei fraction (WM1716): 60.7%
- cleaved PARP positive nuclei fraction (WM1745): 138%
- cleaved PARP positive nuclei fraction (WM3526): 72.8%
- cleaved PARP positive nuclei fraction (WM3619): 215%
- cleaved PARP positive nuclei fraction (WM451Lu): 31.5%

SMILES: OCc1c[nH]c2ccccc12 [Indole-3-carbinol] + O=C1NC(=O)/C(=C/c2ccc(-c3ccc(F)cc3O)o2)S1 [AS252424] (first compound 0.8 µM, partner dose 1 µM)
- cleaved PARP positive nuclei fraction (WM115): 119%
- cleaved PARP positive nuclei fraction (WM1716): 28%
- cleaved PARP positive nuclei fraction (WM1745): 94.5%
- cleaved PARP positive nuclei fraction (WM3526): 75.6%
- cleaved PARP positive nuclei fraction (WM3619): 93.3%
- cleaved PARP positive nuclei fraction (WM451Lu): 99.2%

SMILES: Cn1nnc2c(C(N)=O)ncn2c1=O [temozolomide] + CCN(CC)CCCCNc1ncc2cc(-c3cc(OC)cc(OC)c3)c(NC(=O)NC(C)(C)C)nc2n1 [PD173074] (first compound 2 µM, partner dose 0.1 µM)
- cleaved PARP positive nuclei fraction (WM115): 141%
- cleaved PARP positive nuclei fraction (WM1716): 185%
- cleaved PARP positive nuclei fraction (WM1745): 102%
- cleaved PARP positive nuclei fraction (WM3526): 64.5%
- cleaved PARP positive nuclei fraction (WM3619): 80.3%
- cleaved PARP positive nuclei fraction (WM451Lu): 340%

SMILES: Cc1ccc(NC(=O)c2cccc(N(C)C)c2)cc1NC(=O)c1ccc(O)cc1 + Cc1cc(N2CCOCC2)cc2[nH]c(-c3c(NC[C@@H](O)c4cccc(Cl)c4)cc[nH]c3=O)nc12 [BMS536924] (first compound 2 µM, partner dose 0.2 µM)
- cleaved PARP positive nuclei fraction (WM115): 123%
- cleaved PARP positive nuclei fraction (WM1716): 61.6%
- cleaved PARP positive nuclei fraction (WM1745): 103%
- cleaved PARP positive nuclei fraction (WM3526): 45.6%
- cleaved PARP positive nuclei fraction (WM3619): 123%
- cleaved PARP positive nuclei fraction (WM451Lu): 32.2%

SMILES: CC1(C)NC(=O)N(c2ccc([N+](=O)[O-])c(C(F)(F)F)c2)C1=O [nilutamide] + CN(NC(=O)CC(=O)NN(C)C(=S)c1ccccc1)C(=S)c1ccccc1 [STA4783] (first compound 1 µM, partner dose 0.006 µM)
- cleaved PARP positive nuclei fraction (WM115): 188%
- cleaved PARP positive nuclei fraction (WM1716): 113%
- cleaved PARP positive nuclei fraction (WM1745): 154%
- cleaved PARP positive nuclei fraction (WM3526): 732%
- cleaved PARP positive nuclei fraction (WM3619): 186%
- cleaved PARP positive nuclei fraction (WM451Lu): 41.1%

SMILES: Cc1nc(Nc2ncc(C(=O)Nc3c(C)cccc3Cl)s2)cc(N2CCN(CCO)CC2)n1 [dasatanib] + O=C(O)c1ccc(-c2c[nH]c3ncc(-c4ccccc4)cc23)cc1C1CCCC1 [GSK650394] (first compound 0.004 µM, partner dose 0.16 µM)
- cleaved PARP positive nuclei fraction (WM115): 89.2%
- cleaved PARP positive nuclei fraction (WM1716): 208%
- cleaved PARP positive nuclei fraction (WM1745): 145%
- cleaved PARP positive nuclei fraction (WM3526): 58.1%
- cleaved PARP positive nuclei fraction (WM3619): 107%
- cleaved PARP positive nuclei fraction (WM451Lu): 29.5%
